Measurements reported in PubChem BioAssay AID1259254 (NCATS, 2017)

Purpose: 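Finding genes that stop cells copying their DNA twice in one cycle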 (primary screen)
Cell system: human HCT116 colorectal cancer cells
Knock-down reagent: single siRNA against human genes
Timing: 3 days
Read-out: 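Nuclei stained with Hoechst and imaged; cell-cycle phase assigned by DNA content; G2 share scaled per plate, non-targeting siRNA 0%, GMNN siRNA 100%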
Direction: G2 robust z-score and G2 cells, % of GMNN control: higher = more G2 cells, more excess DNA replication
Call rule: 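Active siRNAs have a G2 robust z of 5 or more median absolute deviations over the median, which in these data means about 38% or higher of GMNN control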
This is an unselected part of about 59,000 deposited reagents. About 1,550 of all reagents (2.6%) count as active. 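G2 share is only a proxy for re-replication; each gene was hit by three separate siRNAs, and active genes were retested.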 Not all columns of the deposit are shown. Not given: the amount of reagent.

ADCY7 (adenylate cyclase 7) [SID160714112] | G2 robust z-score: 1.41; G2 cells, % of GMNN control: 12.9; activity call: inactive
ADCY7 (adenylate cyclase 7) [SID160714123] | G2 robust z-score: -0.803; G2 cells, % of GMNN control: -2.68; activity call: inactive
ADCY7 (adenylate cyclase 7) [SID160714133] | G2 robust z-score: 0.402; G2 cells, % of GMNN control: 5.8; activity call: inactive
SPACA4 (sperm acrosome associated 4) [SID160732633] | G2 robust z-score: -0.59; G2 cells, % of GMNN control: -1.18; activity call: inactive
SPACA4 (sperm acrosome associated 4) [SID160760501] | G2 robust z-score: -0.869; G2 cells, % of GMNN control: -3.14; activity call: inactive
SPACA4 (sperm acrosome associated 4) [SID160760504] | G2 robust z-score: -0.0717; G2 cells, % of GMNN control: 2.46; activity call: inactive
AP1S2 (adaptor related protein complex 1 subunit sigma 2) [SID160721107] | G2 robust z-score: 1.33; G2 cells, % of GMNN control: 12.3; activity call: inactive
AP1S2 (adaptor related protein complex 1 subunit sigma 2) [SID160721108] | G2 robust z-score: 0.15; G2 cells, % of GMNN control: 4.02; activity call: inactive
AP1S2 (adaptor related protein complex 1 subunit sigma 2) [SID160732112] | G2 robust z-score: -0.431; G2 cells, % of GMNN control: -0.0661; activity call: inactive
PSEN2 (presenilin 2) [SID160715139] | G2 robust z-score: -0.0523; G2 cells, % of GMNN control: 2.6; activity call: inactive
PSEN2 (presenilin 2) [SID160715140] | G2 robust z-score: -0.996; G2 cells, % of GMNN control: -4.04; activity call: inactive
PSEN2 (presenilin 2) [SID160715141] | G2 robust z-score: 0.016; G2 cells, % of GMNN control: 3.08; activity call: inactive
ABCB4 (ATP binding cassette subfamily B member 4) [SID160714233] | G2 robust z-score: 0.655; G2 cells, % of GMNN control: 7.57; activity call: inactive
ABCB4 (ATP binding cassette subfamily B member 4) [SID160714234] | G2 robust z-score: -0.627; G2 cells, % of GMNN control: -1.45; activity call: inactive
ABCB4 (ATP binding cassette subfamily B member 4) [SID160714235] | G2 robust z-score: 1.98; G2 cells, % of GMNN control: 16.9; activity call: inactive
DYRK4 (dual specificity tyrosine phosphorylation regulated kinase 4) [SID160720828] | G2 robust z-score: 1.31; G2 cells, % of GMNN control: 12.2; activity call: inactive
DYRK4 (dual specificity tyrosine phosphorylation regulated kinase 4) [SID160720829] | G2 robust z-score: 5.2; G2 cells, % of GMNN control: 39.6; activity call: active
DYRK4 (dual specificity tyrosine phosphorylation regulated kinase 4) [SID160720830] | G2 robust z-score: 0.838; G2 cells, % of GMNN control: 8.87; activity call: inactive

Entries listed so far whose gene name begins with S or s:
SPACA4 (sperm acrosome associated 4) [SID160732633] | G2 robust z-score: -0.59; G2 cells, % of GMNN control: -1.18; activity call: inactive
SPACA4 (sperm acrosome associated 4) [SID160760501] | G2 robust z-score: -0.869; G2 cells, % of GMNN control: -3.14; activity call: inactive
SPACA4 (sperm acrosome associated 4) [SID160760504] | G2 robust z-score: -0.0717; G2 cells, % of GMNN control: 2.46; activity call: inactive
